Substitutions are numbered along the chain they refer to. Results are given in words; binding and its absence hold for the method and conditions named. Binding seen in cells or lysates may run through a third protein. These calls come from enrichment with a bait or labelling near it, and not all partners need be listed. For some assays here: Tags and fused reporters may be left off the sequences shown. Each block holds one binder with its values, some of them ahead of it.
What was measured:
[1] = biological target: T1, Dbp10 (wild type, overexpressed, N-terminal 3xStrep-sfGFP-bdNEDD-MYC tag) (S. cerevisiae) (UniProt Q12389); assay: affinity purification with mass spectrometry; split tags on Brx1 and Dbp10 from yeast lysate after β-estradiol-induced overexpression of DBP10 or dbp10^R522V: IgG Sepharose (Brx1-2xProteinA), 3C protease cleavage, Strep-Tactin (Dbp10), elution with bdNEDD8 protease; Ribo-buffer (50 mM Bis-Tris-Propane HCl pH 8.0, 125 mM NaCl, 25 mM KCl, 10 mM MgCl2, 1 mM TCEP, NP-40); semi-quantitative mass spectrometry of pre-60S particles
T1 sequence: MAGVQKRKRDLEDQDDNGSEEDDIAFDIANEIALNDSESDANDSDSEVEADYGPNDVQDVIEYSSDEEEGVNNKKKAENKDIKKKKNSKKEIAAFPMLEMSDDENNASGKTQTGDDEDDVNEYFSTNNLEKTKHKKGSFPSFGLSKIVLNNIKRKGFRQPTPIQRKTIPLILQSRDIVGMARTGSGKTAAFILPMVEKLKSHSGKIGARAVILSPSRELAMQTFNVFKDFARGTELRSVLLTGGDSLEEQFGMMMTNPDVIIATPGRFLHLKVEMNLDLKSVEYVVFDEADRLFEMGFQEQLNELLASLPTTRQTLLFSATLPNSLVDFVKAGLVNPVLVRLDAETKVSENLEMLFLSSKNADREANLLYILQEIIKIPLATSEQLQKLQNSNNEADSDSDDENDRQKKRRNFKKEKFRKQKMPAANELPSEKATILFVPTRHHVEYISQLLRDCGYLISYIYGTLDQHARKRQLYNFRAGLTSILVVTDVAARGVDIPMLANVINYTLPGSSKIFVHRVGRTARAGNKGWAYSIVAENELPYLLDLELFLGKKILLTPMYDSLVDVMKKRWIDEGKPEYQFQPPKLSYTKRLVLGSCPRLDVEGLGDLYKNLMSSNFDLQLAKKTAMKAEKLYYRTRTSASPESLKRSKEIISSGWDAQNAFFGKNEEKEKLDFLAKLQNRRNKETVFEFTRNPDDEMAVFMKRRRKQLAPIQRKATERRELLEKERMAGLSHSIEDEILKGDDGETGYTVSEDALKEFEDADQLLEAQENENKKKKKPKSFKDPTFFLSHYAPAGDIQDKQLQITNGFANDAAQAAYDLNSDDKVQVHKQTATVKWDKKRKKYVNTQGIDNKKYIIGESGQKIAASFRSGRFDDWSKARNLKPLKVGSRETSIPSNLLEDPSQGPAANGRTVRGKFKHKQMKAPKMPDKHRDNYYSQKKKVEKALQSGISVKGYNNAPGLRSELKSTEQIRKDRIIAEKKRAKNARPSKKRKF

[2] = biological target: T2, Dbp10^R522V (slow-hydrolysis mutant, overexpressed, N-terminal 3xStrep-sfGFP-bdNEDD-MYC tag) (S. cerevisiae) (UniProt Q12389); assay: as above
T2 sequence: T1 sequence with R522V

[3] = biological target: T3, Dbp10 (2xStrep-bdNEDD8-DBP10) (S. cerevisiae) (UniProt Q12389); assay: affinity purification with mass spectrometry; split-tag purification of pre-60S particles from SPB4-AID yeast without and with auxin (0.5 mM IAA, 45 min): IgG Sepharose on Noc2-2xProteinA, 3C cleavage, then Strep-Tactin on 2xStrep-Dbp10; buffers with 50 µM ADP-BeF3; Coomassie-stained 4-20% SDS-PAGE, bands named by molecular weight, ambiguous bands by mass spectrometry; auxin gave ~10-fold enrichment of the particle
T3 sequence: T1 sequence

[4] = biological target: T4, Drs1 R569Q (3x-Strep-Drs1 R569Q) (S. cerevisiae) (UniProt P32892); assay: affinity purification with mass spectrometry; purification of pre-60S intermediates from a drs1 R569Q strain by tags on Drs1 R569Q (3x-Strep) and Ssf1 (2x-ProtA); Coomassie-stained 4-20% SDS-PAGE
T4 sequence: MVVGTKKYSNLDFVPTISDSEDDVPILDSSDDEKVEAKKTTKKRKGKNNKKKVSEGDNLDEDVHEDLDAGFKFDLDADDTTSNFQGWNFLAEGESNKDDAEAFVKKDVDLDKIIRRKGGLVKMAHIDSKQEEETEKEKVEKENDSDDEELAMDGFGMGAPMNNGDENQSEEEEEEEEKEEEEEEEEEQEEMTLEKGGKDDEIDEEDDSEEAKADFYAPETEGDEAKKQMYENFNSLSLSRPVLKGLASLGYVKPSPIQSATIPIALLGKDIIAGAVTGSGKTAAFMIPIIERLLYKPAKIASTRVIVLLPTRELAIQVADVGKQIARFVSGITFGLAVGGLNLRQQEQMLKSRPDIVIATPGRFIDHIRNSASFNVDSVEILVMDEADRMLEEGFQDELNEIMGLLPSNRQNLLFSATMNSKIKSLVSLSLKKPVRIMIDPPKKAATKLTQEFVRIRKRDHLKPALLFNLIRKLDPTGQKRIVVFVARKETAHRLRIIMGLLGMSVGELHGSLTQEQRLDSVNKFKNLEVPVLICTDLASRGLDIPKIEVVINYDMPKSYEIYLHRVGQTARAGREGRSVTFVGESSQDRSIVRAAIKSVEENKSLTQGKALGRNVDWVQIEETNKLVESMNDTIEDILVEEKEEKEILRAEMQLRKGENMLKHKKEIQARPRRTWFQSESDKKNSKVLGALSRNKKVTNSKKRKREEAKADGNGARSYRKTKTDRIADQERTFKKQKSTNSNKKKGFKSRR

[5] = biological target: T5, Dbp10 R522V (sfGFP-3xSTREP-bdNEDD8-MYC-dbp10 R522V) (S. cerevisiae) (UniProt Q12389); assay: affinity purification with mass spectrometry; split-tag purification of pre-60S particles from yeast overexpressing dbp10 R522V (β-estradiol, 1 h): IgG Sepharose on Ssf1-2xProteinA, 3C cleavage, then Strep-Tactin on Dbp10 R522V, bdNEDD8 protease elution; 50 mM Bis-Tris-Propane pH 8.0, 125 mM NaCl, 25 mM KCl, 10 mM MgCl2; Coomassie-stained 4-20% SDS-PAGE, bands named by molecular weight, ambiguous bands by mass spectrometry
T5 sequence: T1 sequence with R522V

[6] = biological target: T3, Dbp10 (2xStrep-bdNEDD8-DBP10) (S. cerevisiae); assay: affinity purification with mass spectrometry; split-tag purification of pre-60S particles from steady state DBP10 yeast: IgG Sepharose on Ssf1-2xProteinA, 3C cleavage, then Strep-Tactin on 2xStrep-Dbp10, desthiobiotin elution; buffers with 50 µM ADP-BeF3; Coomassie-stained 4-20% SDS-PAGE, bands named by molecular weight, ambiguous bands by mass spectrometry

binding [1]: binds | binding [2]: binds | binding [3]: binds
B1: Noc3 (protein, UniProt Q07896 1-663)
chain: MAKRNRSQFRIQERTAKKRKHEDSLLEGNVFQNAPEDMDENTIYSAKGSSWDEEEQDYEMVPRKNRSDTSNLVEGLPIKVNGKVERKLHKAQEKPKDDDEEDEDSNDSSEDDEGPNEEQEAEAKEDEPDTEEKILQLKEDIADLVTKVMEEPEENTAALGRLCKMVESKNPNTCKFSMLALVPVFKSIIPGYRIRPLTETEKKEKVSKEVSKLRNFEQALVYNYKNYVGRLQSLSKTPSNAAPIQVSLGILATQAAKELISTASHFNFRTDIFTLLLRRICKPRISTDPTSIQIIQTFETLLNEDEEGSISFEILRIFNKILKTRNFNIEESVLNMLLSLDVLHDYDPNTKLKGNVSAPKLKKKDRVHLSKKQRKARKEMQQIEEEMRNAEQAVSAEERERNQSEILKIVFTIYLNILKNNAKTLIGSVLEGLTKFGNMANFDLLGDFLEVMKELISDTEFDNLSSAEVRKALLCIVSAFSLISNTQYMKVNVDLSKFVDGLYALLPYICLDADIELSYRSLRLADPLNNEIIKPSVNVSTKAELLLKALDHVFFRSKSGTKERATAFTKRLYMCISHTPEKTSIAILKFIDKLMNRYPEISGLYSSEDRIGNGHFIMEADNPSRSNPEAATLWDNALLEKHYCPVVTKGLRSLSSRSKECSK

binding [4]: binds | binding [1]: binds | binding [2]: binds | binding [5]: binds | binding [6]: binds
B2: Rrp14 (protein, UniProt P36080 1-434)
chain: MSNSLEERLRANSSAFDGLLALIPAKYYYDEKSQEQWKAKKKTKEQSKNDKLKKLDPEQRDDETSSTLEVMKKKEKDAKPVVLPGEKFKHMKMQKQKEATSKVEGDSDLNVEVNDPMIIAPDEDEEEEEDIKVIFDDEGNEIPLESKKDTTEPDRSVEKKSITEEEKLQRKKNLEALRSKLQAKISDMKSKRKAPGSREAILAQRKRKEELKKRKRLESEQEQDQDEIASDSDMEDIDSDLENNSKKRFKKGKKDSEINADGVMFQNIIFDDGARATSDLQRLRKAGRTKGPAKNDVKSHLKLLEAKKNKMEAKDELEQIKQKEKEKWQKAMLQAEGIKIRDDEKLLRKAIKRKEAQKRKSAIEWSERKRVVEDTISERQKRREENLRIRKDNKGKKRNKQEKMKRKYVGSAVPKKRAGFEGRLKTGKKKGGPK

From publication PMC11024185
